# From patent US20230279126A1
# These are yes or no findings as the source states them, for the method shown. Some binding calls cover weakened binding; strength is not graded here.
# T1: extracellular domain of mouse IL12RB1 (mIL12Rb1 ECD) (mouse) (UniProt Q60837)
# T1 sequence: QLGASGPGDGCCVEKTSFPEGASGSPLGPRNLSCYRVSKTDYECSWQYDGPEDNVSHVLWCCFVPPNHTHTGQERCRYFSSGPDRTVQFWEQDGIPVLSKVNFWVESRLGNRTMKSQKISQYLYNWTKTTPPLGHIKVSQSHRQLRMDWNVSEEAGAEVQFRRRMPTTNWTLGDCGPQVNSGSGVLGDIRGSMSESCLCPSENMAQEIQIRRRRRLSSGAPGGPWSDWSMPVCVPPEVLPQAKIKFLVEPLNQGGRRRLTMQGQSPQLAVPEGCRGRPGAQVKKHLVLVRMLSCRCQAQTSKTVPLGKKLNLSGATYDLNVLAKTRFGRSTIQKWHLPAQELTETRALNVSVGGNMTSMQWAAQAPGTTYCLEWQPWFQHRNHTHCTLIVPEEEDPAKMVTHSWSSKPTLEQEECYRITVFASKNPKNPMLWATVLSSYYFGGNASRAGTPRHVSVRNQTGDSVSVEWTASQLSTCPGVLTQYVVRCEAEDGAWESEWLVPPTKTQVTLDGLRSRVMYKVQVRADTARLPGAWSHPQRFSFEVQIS
# B1: mIL12Rb1_VHH14 (VHH)
# VHH: QVQLQESGGGSVQAGGSLRLSCAVSGYDYCGYDVRWYRQAPGKEREFVSGINSDGSTSYADSVKGRFTISQDNAENTSYLHMFSLKPEDTAMYYCKTESPAGESAWCRNFRGMDYWGKGTQVTVSS
# Biological target: T1, extracellular domain of mouse IL12RB1 (mIL12Rb1 ECD) (mouse)
# Assay: periplasmic extract ELISA (PE-ELISA) of phage clones, colorimetric
binder,measurement,value
B1,binding,binds
